These are yes or no findings as the source states them, for the method shown. In cells and extracts the contact can be indirect. A result given as binding can be weak or reduced; the word gives no strength.
Target: mouse protease activated receptor 4 (PAR4) (mouse) (UniProt O88634)
Assay: FRET or BRET; BRET in HEK293 cells, 48 h after transfection; Luc-tagged donor constant (1 µg DNA), GFP-tagged acceptor increased (0–2.5 µg; rho-GFP 0–0.12 µg); BRET plotted against the GFP to Luc ratio, global fit to a hyperbolic or linear curve, 3–6 independent experiments

Sequences of proteins named here, by UniProt entry; tags and fusion partners are left off. A change or cut given only in a name is not applied to a line headed by its entry.
UniProt O88634: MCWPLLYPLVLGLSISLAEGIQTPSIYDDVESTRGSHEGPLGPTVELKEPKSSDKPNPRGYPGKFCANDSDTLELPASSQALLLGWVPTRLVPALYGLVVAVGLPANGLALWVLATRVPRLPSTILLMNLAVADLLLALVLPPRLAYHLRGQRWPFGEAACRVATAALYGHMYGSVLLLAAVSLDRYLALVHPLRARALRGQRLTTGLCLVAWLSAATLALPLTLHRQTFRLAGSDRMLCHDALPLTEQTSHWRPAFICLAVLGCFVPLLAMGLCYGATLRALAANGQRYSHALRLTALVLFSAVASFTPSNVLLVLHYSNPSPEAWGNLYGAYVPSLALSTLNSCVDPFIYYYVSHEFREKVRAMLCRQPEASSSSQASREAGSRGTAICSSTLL
UniProt O08675: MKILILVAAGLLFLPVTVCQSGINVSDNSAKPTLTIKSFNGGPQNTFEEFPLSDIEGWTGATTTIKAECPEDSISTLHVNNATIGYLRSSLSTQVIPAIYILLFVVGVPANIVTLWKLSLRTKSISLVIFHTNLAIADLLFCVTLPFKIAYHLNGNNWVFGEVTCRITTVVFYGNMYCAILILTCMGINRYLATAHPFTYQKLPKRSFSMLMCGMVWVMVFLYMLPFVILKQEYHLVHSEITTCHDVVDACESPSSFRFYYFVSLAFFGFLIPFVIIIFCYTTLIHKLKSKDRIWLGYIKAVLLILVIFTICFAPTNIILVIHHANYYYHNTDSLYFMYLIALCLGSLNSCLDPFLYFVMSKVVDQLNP

binding: binds
Substance: mouse protease activated receptor 3 (PAR3) (from UniProt O08675)

From PMC3566007
